What is called AC50 is the midpoint of the concentration-response curve, whichever way the signal moves.

The source of these data is PubChem BioAssay AID493014 (National Center for Advancing Translational Sciences (NCATS), 2011).

The test can be described thus: qHTS Assay to Find Inhibitors of Chronic Active B-Cell Receptor Signaling. The conditions noted are these: ABC-DLBCL IkBa-CBG/CBR reporter, luminescence ratio (green luciferase fused to IkBa over red control in TMD8 lymphoma cells), 4 h. Summed up:
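Concentration-response series (up to 46 uM) were applied to TMD8 dual-reporter cells for 4 h at 37C with doxycycline. Green/red ratio, after filter-overlap correction, defined %Activity; red signal alone was normalised to basal cells and zero luminescence.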

Where [1] appears, read: measured here: CBR red luminescence, cell number.
Setting [2] is: measured here: IkBa-CBG green luminescence.

Some of the results follow. Shown are side measurements of this screen, not its main read-out; they come without a call. The list favours compounds with an active or inconclusive main result. Words in brackets tell the shape of the fitted curve; partial curves, single points and poor fits give uncertain potencies.

In the case of `CC(=O)Nc1cccn(Cc2c(Cl)cccc2Cl)c1=O`, the AC50 under setting [1] is 0.708 µM [rising, full curve, poor fit]. `COCCN1C(=O)C(CC(=O)Nc2ccccc2)SC1=Nc1ccc(OC)cc1` (stereo unspecified): the half-maximal activity concentration (AC50) under setting [1] is 23.1 µM [rising, single point]. Still for that read-out and setting: next, `O=C(CCNS(=O)(=O)c1cccc2nsnc12)N1CC(=O)N(CCc2ccccc2)C(=O)C1`: 35.5 µM [rising, single point].

Regarding `COc1ccccc1OCC(=O)NCCc1nc2ccccc2[nH]1`, the AC50 under setting [1] was 17.8 µM [falling, single point]. The same measure, in the same setting: next, `Cc1ccccc1OCC(=O)Nc1cccc(C(=O)O)c1`: 2.24 µM [falling, full curve]; `Cc1ccc2nsnc2c1NC(=S)NC(=O)c1ccco1`: 5.8 µM [falling, partial curve, poor fit]; `COc1cccc(C(=O)Nc2ccc(-n3nncc3C(C)(C)C)cc2)c1`: 10 µM [falling, partial curve]. The same measure, in the same setting: as for `CCc1noc(C)c1C(=O)Nc1nnc(CC(C)C)s1`, the figure is 32.6 µM [falling, single point]; as for `CCCN1CCN(CCCNC(=O)CN2C(=O)c3cccnc3Oc3ccc(C)cc32)CC1`, 4.47 µM [rising, single point]; as for `Cc1cc2nccc(-c3ccccn3)n2n1`, 0.158 µM [falling, full curve, poor fit]. On the same count and under the same terms, next, `C=CCSc1nc(Oc2ccccc2)c2sccc2n1`: 10 µM [rising, partial curve]; `S=C(NCc1ccco1)Nc1cccc(Cl)c1Cl`: 3.55 µM [rising, partial curve, poor fit]; `Oc1ccccc1C1CC(c2cccs2)=NC(c2ccc(Cl)cc2)N1` (stereo unspecified): 35.5 µM [falling, single point]. Turning to `Cc1cc(SCC(=O)N/N=C/c2ccc(O)cc2O)nc2ccccc12`, the concentration at half-maximal activity (AC50) under setting [1] was 14.1 µM [falling, single point]. Still for that read-out and setting: next, `Clc1ccc(-c2noc(COc3ccccc3)n2)cc1`: 4.47 µM [rising, full curve, poor fit]; `CCc1cc2c(=O)[nH]c(N3CCOCC3)nc2s1`: 29.1 µM [falling, single point]. Still for that read-out and setting: next, `Cc1cccc(-c2sc(Nc3ccccc3)n[n+]2-c2ccccc2)c1`: 20.6 µM [falling, single point]. Regarding `O=C(Nc1ccccc1C(=O)Nc1nnc(C(F)(F)F)s1)c1ccccc1Cl`, the concentration at half-maximal activity (AC50) was 12.6 µM [falling, single point] under setting [1] and 5.01 µM [rising, partial curve, poor fit] under setting [2].

Turning to `CC(C)CCNC(=O)c1csc2c1CCCCC2`, the half-maximal activity concentration (AC50) under setting [1] was 15.8 µM [rising, partial curve, poor fit].

Consider `CCCCC1C(=O)N(c2ccccc2)N(c2ccccc2)C1=O`, for which the AC50 under setting [1] was 12.6 µM [falling, partial curve, poor fit]. The same measure, in the same setting: as for `CCCCn1c(-c2ccc([N+](=O)[O-])cc2)n[nH]c1=S`, the figure is 11.2 µM [rising, partial curve]. Turning to `COc1cc(CCC(=O)OCC(=O)Nc2cccc(S(N)(=O)=O)c2)cc(OC)c1OC`, under setting [1], the concentration at half-maximal activity (AC50) was 1.64 µM [rising, full curve, poor fit]. The same measure, in the same setting: next, `CC(=O)Oc1cc2c(C(=O)NCCCN3CCOCC3)c(C)oc2c2ccccc12`: 35.5 µM [falling, single point].

For `COc1cc(-c2nnc(CSc3nnc(Nc4ccc(Oc5ccccc5)cc4)s3)o2)cc(OC)c1OC`, the AC50 under setting [1] was 2.59 µM [rising, partial curve]. Still for that read-out and setting: as for `Cc1[nH]c(=O)[nH]c(=O)c1S(=O)(=O)N1CCCC(C(=O)N2CCN(c3ccccc3Cl)CC2)C1` (stereo unspecified), the figure is 5.17 µM [rising, partial curve, poor fit]; as for `CC(C)(C)NC(=O)CSc1nc2ccccc2n1-c1ccccc1`, 13 µM [falling, single point]; as for `COc1ccc(OC)c(NC(=O)c2ccc(-c3cccs3)cc2)c1`, 2.82 µM [falling, full curve, poor fit]. For `CCC(C)NC(=O)N1c2ccccc2Sc2ccccc21` (stereo unspecified), under setting [1], the AC50 is 0.501 µM [falling, full curve]. On the same count and under the same terms, as for `CCn1c(SCC(=O)c2cc(C)n(CC3CCCO3)c2C)nc2ccccc21` (stereo unspecified), the figure is 5.62 µM [rising, single point]. The same measure, in the same setting: next, `O=C(Nc1nc2c(s1)CCCC2)c1cccs1`: 13 µM [falling, partial curve]. In the case of `Cc1ccc(S(=O)(=O)N(C)c2ccc(OC(=O)c3cc(=O)[nH]c4ccccc34)cc2)cc1`, under setting [1], the concentration at half-maximal activity (AC50) is 4.11 µM [rising, full curve, poor fit]. Same read-out and setting: as for `C#CCOCCOCCOCCNc1nc(N2CCN(C(=O)CCCCCCCCCCNC(=O)Cn3cc(CCCCCN)nn3)CC2)nc(N2CCN(C(=O)CCCCCCCCCCNC(=O)[C@H](CO)n3cc(CCCCCN)nn3)CC2)n1`, the figure is 18.4 µM [rising, partial curve, poor fit]. Take `COc1ccc(CCN2CCCn3c2nc2c3c(=O)[nH]c(=O)n2C)cc1OC`: under setting [2], the half-maximal activity concentration (AC50) was 8.91 µM [falling, partial curve, poor fit]. Turning to `Cc1ccc(CNc2ccc(O)cc2)cc1`, the half-maximal activity concentration (AC50) under setting [1] was 9.2 µM [rising, single point].

On to `C/C(=N\OCc1nc2ccccc2c(=O)n1/N=C/c1cc([N+](=O)[O-])ccc1O)c1ccccc1`, for which the AC50 under setting [1] is 10 µM [falling, partial curve, poor fit]. Consider `COc1ccc(NC(=O)c2ccc3c(=O)n(CC4CCCO4)c(=S)[nH]c3c2)c(OC)c1` (stereo unspecified), for which the concentration at half-maximal activity (AC50) under setting [1] was 4.47 µM [falling, partial curve, poor fit]. As for `CCOc1ccc(/C=N/Nc2ccccn2)cc1OC`, the AC50 under setting [1] is 4.47 µM [rising, full curve, poor fit]. The same measure, in the same setting: next, `CCOc1ccc(OCC)c(NC(=O)CSCCc2ccccn2)c1`: 11.2 µM [falling, partial curve, poor fit]. The same measure, in the same setting: next, `CN(C)c1ccc(C(=O)N/N=C/c2ccccn2)cc1`: 35.5 µM [falling, single point]; `CCOC(=O)N1CCN(C(=O)c2ccccc2-c2ccccc2)CC1`: 6.51 µM [falling, single point]. Still for that read-out and setting: next, `CC[C@@]12C(=O)N(c3ccccc3)C(=O)N1[C@H](c1ccc(OC)cc1)[C@@H]1C(=O)N(C(C)(C)C)C(=O)[C@@H]12`: 0.0103 µM [rising, full curve, poor fit]; `CCOc1ccc(CNC(=O)CCCc2cn(C)c3ccccc23)cc1`: 11.2 µM [falling, partial curve]. `Cc1cc(NC(=O)c2cnn3cccnc23)nn1CC(=O)Nc1cccnc1`: the AC50 under setting [1] was 29.1 µM [falling, single point]. On to `CC1(C(=O)NCCCNc2ncc(C(F)(F)F)cc2Cl)C=CCN1C(=O)c1ccccc1` (stereo unspecified), for which the AC50 under setting [2] is 16.4 µM [falling, partial curve, poor fit]. In the case of `CN1CCN(C(=O)C2CCN(S(=O)(=O)c3cnc[nH]3)CC2)CC1`, under setting [1], the AC50 is 23.1 µM [rising, single point]. The same measure, in the same setting: as for `Cc1cnc(NC(=O)C2CC=CCC2)s1` (stereo unspecified), the figure is 22.4 µM [falling, single point]. On the same count and under the same terms, next, `O=C(NNC(=O)c1cc(-c2ccncc2)nc2ccccc12)c1cccc(Cl)c1`: 16.4 µM [falling, partial curve, poor fit]. The same measure, in the same setting: next, `Cc1ccc2nc3n(c(=O)c2c1)-c1ccc(Cl)cc1C(=O)NC3Cc1ccccc1` (stereo unspecified): 8.2 µM [falling, partial curve]. `COc1ccc(OC)c(CN(CCCN2CCOCC2)C(=O)Nc2ccccc2)c1`: the concentration at half-maximal activity (AC50) under setting [1] is 16.4 µM [rising, partial curve, poor fit]. For `Cn1c(/C(C#N)=C/C2CC=CCC2)nc2ccccc21` (stereo unspecified), the concentration at half-maximal activity (AC50) under setting [1] was 0.58 µM [falling, full curve, poor fit].

For the compound `O=c1oc2ccccc2cc1-c1ccc(O)cc1`, the concentration at half-maximal activity (AC50) under setting [1] is 2.59 µM [rising, full curve, poor fit]. Turning to `CC(C)(C)c1cc(C(C)(C)C)c2oc(=O)c(-c3nc4ccc(C(=O)O)cc4[nH]3)cc2c1`, under setting [1], the AC50 is 1.3 µM [falling, partial curve, poor fit].

As for `CCN(CC)c1ccc(/C=N/NC(=O)c2cnccn2)cc1`, the concentration at half-maximal activity (AC50) is 35.5 µM [falling, single point] under setting [1] and 22.4 µM [falling, single point] under setting [2].

For the compound `O=C(CSc1c(Cl)cccc1Cl)NC1CCCc2ccccc21` (stereo unspecified), the half-maximal activity concentration (AC50) under setting [1] is 32.6 µM [rising, single point]. Still for that read-out and setting: next, `Cc1ccc2c(COC(=O)CNC(=O)c3ccccc3)cc(=O)oc2c1`: 29.1 µM [rising, single point]. On the same count and under the same terms, as for `CCn1c(C(=O)N2CCCC(C(=O)NCCCc3ccccc3)C2)cc2sccc21` (stereo unspecified), the figure is 23.1 µM [falling, single point]. The same measure, in the same setting: as for `COCCNCCCCOc1c(Cl)cc(C)cc1Br`, the figure is 10 µM [falling, partial curve, poor fit]. Turning to `CC(C)NC(=O)CSc1ccccc1C(=O)N1CCN(S(=O)(=O)/C=C/c2ccccc2)CC1`, the half-maximal activity concentration (AC50) under setting [1] was 20.6 µM [rising, partial curve]. On to `O=C(N/N=C/c1ccc(O)cc1)c1[nH]c2ccc(Br)cc2c1-c1ccccc1`, for which the AC50 reads like this: under setting [1], 6.51 µM [rising, full curve]; under setting [2], 2.59 µM [falling, full curve]. On to `CCOc1ncccc1C(=O)OCC(=O)c1ccc(Cl)s1`, for which the AC50 under setting [1] was 35.5 µM [rising, single point]. On the same count and under the same terms, next, `Cc1nnc(SCc2cnc(-c3ccccc3)o2)[nH]c1=O`: 32.6 µM [falling, single point].

Consider `CCOC(=O)CSc1nc2ccccc2n1C(=O)OCC`, for which, under setting [1], the AC50 is 1.58 µM [falling, full curve]. For `O=C(/C=C/c1cccc(F)c1)Nc1nccs1`, under setting [1], the AC50 is 8.91 µM [falling, partial curve, poor fit].
